In the supplement of paper PMC10849652:
This is one part of the list.

The chains behind the UniProt entries cited, without tags or fusion partners. Where a name states a change or a piece, a line headed by the entry shows the natural chain unless it says otherwise.
UniProt P46940, whole entry, looked up: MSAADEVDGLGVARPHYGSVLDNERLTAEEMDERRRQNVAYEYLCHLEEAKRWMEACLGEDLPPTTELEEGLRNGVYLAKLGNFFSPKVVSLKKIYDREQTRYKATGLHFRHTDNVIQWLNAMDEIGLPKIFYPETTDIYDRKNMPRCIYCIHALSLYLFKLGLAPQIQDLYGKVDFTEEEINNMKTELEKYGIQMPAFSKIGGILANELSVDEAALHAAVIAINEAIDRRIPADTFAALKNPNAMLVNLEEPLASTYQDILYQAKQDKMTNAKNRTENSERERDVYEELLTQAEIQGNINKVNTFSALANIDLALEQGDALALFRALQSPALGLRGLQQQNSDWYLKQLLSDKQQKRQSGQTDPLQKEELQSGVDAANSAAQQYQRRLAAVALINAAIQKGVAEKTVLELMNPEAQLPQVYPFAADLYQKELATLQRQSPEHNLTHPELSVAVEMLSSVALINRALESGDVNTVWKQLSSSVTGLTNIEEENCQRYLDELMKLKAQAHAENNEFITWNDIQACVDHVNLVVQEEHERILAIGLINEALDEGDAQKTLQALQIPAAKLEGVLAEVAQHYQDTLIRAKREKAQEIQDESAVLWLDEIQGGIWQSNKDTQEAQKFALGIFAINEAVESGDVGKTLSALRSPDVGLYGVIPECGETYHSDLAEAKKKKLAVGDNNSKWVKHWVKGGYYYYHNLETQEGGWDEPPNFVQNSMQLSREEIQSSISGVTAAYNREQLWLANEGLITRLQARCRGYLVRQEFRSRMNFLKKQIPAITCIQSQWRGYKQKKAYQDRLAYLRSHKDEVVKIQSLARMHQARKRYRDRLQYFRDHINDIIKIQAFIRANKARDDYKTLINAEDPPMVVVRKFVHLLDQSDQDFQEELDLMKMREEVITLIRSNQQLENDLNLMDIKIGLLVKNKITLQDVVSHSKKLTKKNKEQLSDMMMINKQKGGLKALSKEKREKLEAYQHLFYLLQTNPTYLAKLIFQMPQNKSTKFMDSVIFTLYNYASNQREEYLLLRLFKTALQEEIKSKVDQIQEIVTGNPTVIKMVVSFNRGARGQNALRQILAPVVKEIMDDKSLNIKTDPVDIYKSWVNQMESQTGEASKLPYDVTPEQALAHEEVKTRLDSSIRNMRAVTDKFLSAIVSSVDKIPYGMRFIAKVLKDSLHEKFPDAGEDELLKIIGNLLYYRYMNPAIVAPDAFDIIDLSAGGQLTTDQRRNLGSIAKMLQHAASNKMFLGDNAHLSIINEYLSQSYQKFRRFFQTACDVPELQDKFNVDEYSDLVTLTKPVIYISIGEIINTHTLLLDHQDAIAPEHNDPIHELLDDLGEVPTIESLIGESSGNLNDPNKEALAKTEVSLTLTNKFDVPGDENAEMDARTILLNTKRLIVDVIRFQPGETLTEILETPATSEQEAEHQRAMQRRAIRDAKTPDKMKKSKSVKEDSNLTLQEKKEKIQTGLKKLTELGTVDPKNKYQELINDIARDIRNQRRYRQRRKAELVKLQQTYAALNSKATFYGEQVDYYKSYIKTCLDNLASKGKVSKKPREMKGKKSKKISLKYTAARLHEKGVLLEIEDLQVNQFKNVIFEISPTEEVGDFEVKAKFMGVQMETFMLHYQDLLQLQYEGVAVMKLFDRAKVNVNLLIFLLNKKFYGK
UniProt Q9NZI8, whole entry, looked up: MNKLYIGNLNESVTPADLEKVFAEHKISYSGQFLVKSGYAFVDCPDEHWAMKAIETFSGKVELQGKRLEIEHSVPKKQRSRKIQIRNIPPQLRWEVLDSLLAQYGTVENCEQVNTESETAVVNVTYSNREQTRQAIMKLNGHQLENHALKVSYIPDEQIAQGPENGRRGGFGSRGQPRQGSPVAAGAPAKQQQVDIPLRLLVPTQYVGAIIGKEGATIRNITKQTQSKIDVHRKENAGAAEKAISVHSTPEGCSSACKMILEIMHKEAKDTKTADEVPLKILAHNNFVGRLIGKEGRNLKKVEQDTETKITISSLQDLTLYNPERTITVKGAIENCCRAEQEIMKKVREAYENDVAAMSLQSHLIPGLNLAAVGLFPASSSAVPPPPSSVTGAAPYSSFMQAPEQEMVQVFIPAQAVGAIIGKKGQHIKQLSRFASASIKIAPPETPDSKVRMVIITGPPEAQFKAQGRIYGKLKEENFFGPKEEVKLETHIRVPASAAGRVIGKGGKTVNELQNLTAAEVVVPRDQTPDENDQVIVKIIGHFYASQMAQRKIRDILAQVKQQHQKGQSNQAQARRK
UniProt Q70UQ0: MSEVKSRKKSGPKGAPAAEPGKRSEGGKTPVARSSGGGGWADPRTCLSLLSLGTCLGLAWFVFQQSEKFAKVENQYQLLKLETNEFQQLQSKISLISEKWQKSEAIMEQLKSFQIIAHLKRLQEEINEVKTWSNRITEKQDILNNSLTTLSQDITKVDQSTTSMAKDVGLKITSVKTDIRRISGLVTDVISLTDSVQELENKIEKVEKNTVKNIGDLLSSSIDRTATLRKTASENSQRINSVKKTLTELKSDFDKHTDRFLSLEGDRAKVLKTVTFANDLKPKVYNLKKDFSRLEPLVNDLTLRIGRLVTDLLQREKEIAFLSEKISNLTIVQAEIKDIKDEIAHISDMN
UniProt Q9Y5U9: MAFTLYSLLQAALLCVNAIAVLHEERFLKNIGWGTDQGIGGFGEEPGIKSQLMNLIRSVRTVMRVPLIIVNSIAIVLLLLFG
UniProt Q8TB96: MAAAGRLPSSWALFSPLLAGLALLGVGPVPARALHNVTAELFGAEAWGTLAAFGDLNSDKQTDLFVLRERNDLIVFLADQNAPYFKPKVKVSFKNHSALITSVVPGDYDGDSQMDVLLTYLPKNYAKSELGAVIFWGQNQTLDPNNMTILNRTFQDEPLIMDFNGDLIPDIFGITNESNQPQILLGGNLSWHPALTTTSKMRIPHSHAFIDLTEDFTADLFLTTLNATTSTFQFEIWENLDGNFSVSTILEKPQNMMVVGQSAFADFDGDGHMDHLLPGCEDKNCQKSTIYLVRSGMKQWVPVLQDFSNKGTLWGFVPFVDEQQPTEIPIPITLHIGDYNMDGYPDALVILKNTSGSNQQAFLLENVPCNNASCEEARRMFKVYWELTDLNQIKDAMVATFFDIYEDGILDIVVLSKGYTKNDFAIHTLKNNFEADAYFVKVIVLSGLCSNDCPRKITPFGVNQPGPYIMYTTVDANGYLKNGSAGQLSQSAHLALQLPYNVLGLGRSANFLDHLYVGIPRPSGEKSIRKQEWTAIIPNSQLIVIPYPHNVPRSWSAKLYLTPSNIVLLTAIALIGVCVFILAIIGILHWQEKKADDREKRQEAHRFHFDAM
UniProt Q13576: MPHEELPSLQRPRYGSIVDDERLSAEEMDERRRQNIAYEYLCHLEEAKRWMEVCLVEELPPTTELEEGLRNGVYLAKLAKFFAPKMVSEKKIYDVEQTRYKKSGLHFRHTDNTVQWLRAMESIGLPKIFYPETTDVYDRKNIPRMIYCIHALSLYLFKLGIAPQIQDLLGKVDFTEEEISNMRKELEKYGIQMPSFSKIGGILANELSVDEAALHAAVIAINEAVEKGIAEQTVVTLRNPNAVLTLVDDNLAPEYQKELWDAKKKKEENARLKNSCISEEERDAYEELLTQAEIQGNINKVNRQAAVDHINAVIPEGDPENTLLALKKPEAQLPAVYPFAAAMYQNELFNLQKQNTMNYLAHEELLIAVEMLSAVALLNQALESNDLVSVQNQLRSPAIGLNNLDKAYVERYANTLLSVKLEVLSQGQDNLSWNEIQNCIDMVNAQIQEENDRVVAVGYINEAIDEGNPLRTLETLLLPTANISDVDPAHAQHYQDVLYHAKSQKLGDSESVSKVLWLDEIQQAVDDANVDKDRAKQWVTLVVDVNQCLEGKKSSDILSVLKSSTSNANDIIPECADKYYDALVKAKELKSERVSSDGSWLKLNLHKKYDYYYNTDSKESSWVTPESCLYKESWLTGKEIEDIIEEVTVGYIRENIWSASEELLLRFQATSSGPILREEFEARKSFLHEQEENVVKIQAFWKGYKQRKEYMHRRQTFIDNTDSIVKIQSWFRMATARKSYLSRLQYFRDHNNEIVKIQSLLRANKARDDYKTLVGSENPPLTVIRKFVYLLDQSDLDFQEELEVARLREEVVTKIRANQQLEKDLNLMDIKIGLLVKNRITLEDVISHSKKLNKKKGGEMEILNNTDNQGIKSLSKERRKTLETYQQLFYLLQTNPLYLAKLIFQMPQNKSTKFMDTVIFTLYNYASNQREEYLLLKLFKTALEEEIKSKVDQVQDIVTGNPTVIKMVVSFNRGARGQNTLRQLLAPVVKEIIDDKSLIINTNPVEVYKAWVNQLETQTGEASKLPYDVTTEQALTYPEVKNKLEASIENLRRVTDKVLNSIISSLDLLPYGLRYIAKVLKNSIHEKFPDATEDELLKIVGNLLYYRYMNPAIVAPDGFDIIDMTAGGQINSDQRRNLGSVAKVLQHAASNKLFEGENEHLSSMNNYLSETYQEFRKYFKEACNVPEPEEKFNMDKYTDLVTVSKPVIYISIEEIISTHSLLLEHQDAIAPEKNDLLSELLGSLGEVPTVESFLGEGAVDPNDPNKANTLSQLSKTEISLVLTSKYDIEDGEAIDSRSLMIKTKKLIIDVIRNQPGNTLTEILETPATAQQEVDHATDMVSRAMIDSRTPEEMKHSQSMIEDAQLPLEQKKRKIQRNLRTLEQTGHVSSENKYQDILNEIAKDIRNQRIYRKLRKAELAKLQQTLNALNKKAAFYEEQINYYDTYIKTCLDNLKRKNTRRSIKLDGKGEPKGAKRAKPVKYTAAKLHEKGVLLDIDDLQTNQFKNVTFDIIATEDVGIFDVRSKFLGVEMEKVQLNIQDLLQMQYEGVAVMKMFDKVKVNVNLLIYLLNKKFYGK
UniProt P29218: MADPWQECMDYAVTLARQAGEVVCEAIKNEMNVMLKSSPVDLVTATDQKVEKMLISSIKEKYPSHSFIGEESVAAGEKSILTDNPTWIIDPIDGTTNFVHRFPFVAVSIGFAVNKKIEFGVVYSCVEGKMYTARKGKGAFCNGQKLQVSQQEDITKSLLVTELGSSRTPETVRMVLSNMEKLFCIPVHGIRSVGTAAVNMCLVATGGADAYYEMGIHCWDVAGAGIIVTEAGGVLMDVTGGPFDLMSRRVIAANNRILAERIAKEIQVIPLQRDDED
UniProt Q969R8: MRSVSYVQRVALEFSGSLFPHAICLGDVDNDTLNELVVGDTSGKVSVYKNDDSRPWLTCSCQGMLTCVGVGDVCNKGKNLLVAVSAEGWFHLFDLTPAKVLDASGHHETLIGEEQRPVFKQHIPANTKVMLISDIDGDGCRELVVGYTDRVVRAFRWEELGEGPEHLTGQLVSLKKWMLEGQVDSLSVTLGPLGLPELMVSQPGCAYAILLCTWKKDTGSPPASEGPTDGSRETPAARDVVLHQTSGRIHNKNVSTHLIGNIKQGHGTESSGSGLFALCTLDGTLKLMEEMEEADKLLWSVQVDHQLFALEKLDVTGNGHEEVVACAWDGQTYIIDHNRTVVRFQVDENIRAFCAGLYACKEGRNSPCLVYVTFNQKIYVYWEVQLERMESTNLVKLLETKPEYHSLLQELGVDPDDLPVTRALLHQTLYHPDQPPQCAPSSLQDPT
UniProt P19823: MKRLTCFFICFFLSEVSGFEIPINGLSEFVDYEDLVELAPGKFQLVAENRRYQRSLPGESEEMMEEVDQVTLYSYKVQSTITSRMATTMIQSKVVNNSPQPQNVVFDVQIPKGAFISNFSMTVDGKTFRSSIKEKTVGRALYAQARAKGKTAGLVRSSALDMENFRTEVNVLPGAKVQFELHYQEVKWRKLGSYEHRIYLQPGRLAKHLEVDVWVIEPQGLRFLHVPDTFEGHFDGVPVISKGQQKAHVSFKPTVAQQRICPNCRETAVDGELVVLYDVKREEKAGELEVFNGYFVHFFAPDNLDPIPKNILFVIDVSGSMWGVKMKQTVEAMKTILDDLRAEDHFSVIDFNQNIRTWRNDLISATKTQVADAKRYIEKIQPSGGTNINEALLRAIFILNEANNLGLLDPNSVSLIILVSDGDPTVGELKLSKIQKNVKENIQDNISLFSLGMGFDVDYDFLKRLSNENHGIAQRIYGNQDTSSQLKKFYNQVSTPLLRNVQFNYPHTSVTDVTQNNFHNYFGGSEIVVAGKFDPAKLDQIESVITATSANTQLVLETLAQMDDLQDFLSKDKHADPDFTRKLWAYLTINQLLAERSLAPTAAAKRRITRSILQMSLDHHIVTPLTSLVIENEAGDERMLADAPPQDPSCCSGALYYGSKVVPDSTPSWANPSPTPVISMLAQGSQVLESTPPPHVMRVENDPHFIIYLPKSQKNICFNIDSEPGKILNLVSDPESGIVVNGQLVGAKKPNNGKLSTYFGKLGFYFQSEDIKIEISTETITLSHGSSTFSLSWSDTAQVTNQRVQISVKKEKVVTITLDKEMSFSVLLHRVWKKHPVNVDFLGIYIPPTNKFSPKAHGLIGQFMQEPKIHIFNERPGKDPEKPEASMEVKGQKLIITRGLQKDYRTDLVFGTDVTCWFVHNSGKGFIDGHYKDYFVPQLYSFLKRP

Experiments:
Assay in all cases: log2 fold change, soluble protein after heating vs DMSO (PISA); higher = thermal stabilisation; K562 cells, 10 uM, 30 min; active = over 0.2 and 3.5 SD of the protein, either way, in both replicates (recomputed)
saracatinib = compound: CN1CCN(CCOc2cc(OC3CCOCC3)c3c(Nc4c(Cl)ccc5c4OCO5)ncnc3c2)CC1 [saracatinib]
How it was run: (§1)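 K562 cells at 2×10^6 cells/mL were treated for 30 min with 10 μM compound, and aliquots were heated for 3 min over 48°C-58°C before pooling. Extraction used PBS with 0.5% NP-40 at 4°C, and soluble protein was the supernatant after 21,000xg for 90 min, measured by TMTpro 16plex LC-MS/MS with channel sums equalised. Thermal stability values, relative to control samples and from duplicates, are log2 fold changes.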

sotrastaurin = compound: CN1CCN(c2nc(C3=C(c4c[nH]c5ccccc45)C(=O)NC3=O)c3ccccc3n2)CC1 [sotrastaurin]
How it was run: as §1

alvocidib = compound: CN1CC[C@H](c2c(O)cc(O)c3c(=O)cc(-c4ccccc4Cl)oc23)[C@H](O)C1 [alvocidib]
How it was run: as §1

Tubastatin A = compound: CN1CCc2c(c3ccccc3n2Cc2ccc(C(=O)NO)cc2)C1 [Tubastatin A]
How it was run: as §1

[1] = compound: CNC(=O)C1=CC=CC=C1NC2=NC(=NC=C2Cl)NC3=C(C=C(C=C3)N4CCOCC4)OC
How it was run: as §1

defactinib = compound: CNC(=O)c1ccc(Nc2ncc(C(F)(F)F)c(NCc3nccnc3N(C)S(C)(=O)=O)n2)cc1 [defactinib]
How it was run: as §1

rucaparib = compound: CNCc1ccc(-c2[nH]c3cc(F)cc4c3c2CCNC4=O)cc1 [rucaparib]
How it was run: as §1

[2] = compound: CNc1nc(-c2ccc3c(N)n[nH]c3c2)cc(N2C[C@@H](C(=O)NC3CCCCC3)CC[C@H]2C)n1
How it was run: as §1

encorafenib = compound: COC(=O)N[C@@H](C)CNc1nccc(-c2cn(C(C)C)nc2-c2cc(Cl)cc(NS(C)(=O)=O)c2F)n1 [encorafenib]
How it was run: as §1

[3] = compound: COC(=O)[C@H](CCSC)NC(=O)C1=C(C=C(C=C1)NC[C@H](CS)N)C2=CC=CC=C2
How it was run: as §1

Measured: log2 fold change

IDH3G (UniProt P51553)
inactive: saracatinib -0.008 | sotrastaurin 0.008 | alvocidib 0.01 | Tubastatin A -0.024 | [1] 0.003 | defactinib -0.017 | rucaparib -0.005 | [2] 0.024 | encorafenib -0.012 | [3] -0.021

ITGB5 (UniProt P18084)
inactive: saracatinib 0.038 | sotrastaurin -0.021 | alvocidib -0.096 | Tubastatin A -0.053 | [1] 0.103 | defactinib -0.165 | rucaparib -0.027 | [2] -0.043 | encorafenib -0.005 | [3] 0.004

IKBKG isoform 2 (UniProt Q9Y6K9)
inactive: saracatinib 0.02 | sotrastaurin 0.002 | alvocidib 0.077 | Tubastatin A 0.031 | [1] -0.024 | defactinib 0.051 | rucaparib -0.011 | [2] -0.043 | encorafenib -0.01 | [3] 0.008

IMP3 (UniProt Q9NV31)
inactive: saracatinib 0.062 | sotrastaurin -0.224 | alvocidib 0.039 | Tubastatin A 1.39 | [1] -0.293 | defactinib -0.213 | rucaparib -0.204 | [2] 0.129 | encorafenib -0.23 | [3] -0.152

ITGB1 (UniProt P05556)
inactive: saracatinib 0.013 | sotrastaurin 0.034 | alvocidib 0.013 | Tubastatin A -0.036 | [1] -0.013 | defactinib -0.006 | rucaparib 0.004 | [2] -0.012 | encorafenib -0.011 | [3] 0.013

INTS9 (UniProt Q9NV88)
inactive: saracatinib 0.021 | sotrastaurin -0.041 | alvocidib -0.055 | Tubastatin A 0.021 | [1] -0.024 | defactinib -0.106 | rucaparib -0.054 | [2] -0.03 | encorafenib 0.007 | [3] 0.016

IQGAP1 (UniProt P46940)
inactive: saracatinib -0.025 | sotrastaurin -0.019 | alvocidib -0.045 | Tubastatin A 0.042 | [1] -0.056 | defactinib -0.043 | rucaparib 0 | [2] 0.054 | encorafenib 0.025 | [3] -0.03

IGF2BP1 (UniProt Q9NZI8)
inactive: saracatinib -0.111 | sotrastaurin -0.185 | alvocidib 0.133 | Tubastatin A 0.125 | [1] 0.033 | defactinib 0.093 | rucaparib 0.46 | [2] 0.093 | encorafenib 0.272 | [3] -0.017

IKBIP isoform 4 (UniProt Q70UQ0)
inactive: saracatinib -0.045 | sotrastaurin 0.007 | alvocidib 0.001 | Tubastatin A -0.022 | [1] 0.034 | defactinib 0.006 | rucaparib 0.02 | [2] -0.032 | encorafenib 0 | [3] 0.007

ISYNA1 (UniProt Q9NPH2)
inactive: saracatinib 0.039 | sotrastaurin 0.021 | alvocidib -0.075 | Tubastatin A 0 | [1] -0.013 | defactinib 0.004 | rucaparib -0.075 | [2] -0.008 | encorafenib 0.066 | [3] -0.015

IGBP1 (UniProt P78318)
inactive: saracatinib -0.069 | sotrastaurin -0.05 | alvocidib -0.026 | Tubastatin A 0.012 | [1] -0.023 | defactinib -0.008 | rucaparib -0.061 | [2] -0.025 | encorafenib 0.073 | [3] 0.049

IL18 (UniProt Q14116)
inactive: saracatinib -0.011 | sotrastaurin 0.026 | alvocidib 0.01 | Tubastatin A -0.019 | [1] -0.02 | defactinib -0.059 | rucaparib -0.048 | [2] -0.064 | encorafenib -0.006 | [3] 0.006

IDH1 (UniProt O75874)
inactive: saracatinib 0.031 | sotrastaurin 0.022 | alvocidib 0.014 | Tubastatin A -0.034 | [1] -0.032 | defactinib -0.001 | rucaparib -0.056 | [2] -0.038 | encorafenib -0.003 | [3] 0.017

IFI30 (UniProt P13284)
inactive: saracatinib 0.224 | sotrastaurin 0.063 | Tubastatin A -0.028 | [1] -0.02 | defactinib -0.048 | rucaparib 0.006 | [2] 0.144 | encorafenib 0.009 | [3] 0.042

IER3IP1 (UniProt Q9Y5U9)
inactive: saracatinib 0.29 | sotrastaurin -0.083 | alvocidib 0.042 | Tubastatin A -0.109 | [1] -0.063 | defactinib 0.148 | rucaparib 0.013 | [2] -0.05 | encorafenib 0.03 | [3] -0.068

ITFG1 (UniProt Q8TB96)
inactive: saracatinib 0.167 | sotrastaurin 0.062 | alvocidib -0.015 | Tubastatin A 0.011 | [1] 0.008 | defactinib -0.067 | rucaparib 0.166 | [2] 0.076 | encorafenib -0.075 | [3] 0.201

IKBKB (UniProt O14920)
inactive: saracatinib -0.022 | sotrastaurin -0.228 | alvocidib 0.157 | Tubastatin A 0.463 | [1] -0.146 | defactinib 0.034 | rucaparib 0.447 | [2] 0.052 | encorafenib 0.194 | [3] -0.007

IQGAP2 (UniProt Q13576)
inactive: saracatinib -0.168 | sotrastaurin -0.141 | alvocidib -0.139 | Tubastatin A 0.17 | [1] -0.123 | defactinib -0.162 | rucaparib 0.088 | [2] 0.086 | encorafenib 0.16 | [3] -0.165

IDH2 (UniProt P48735)
inactive: saracatinib 0.02 | sotrastaurin 0.01 | alvocidib -0.06 | Tubastatin A -0.017 | [1] -0.018 | defactinib -0.012 | rucaparib -0.037 | [2] -0.009 | encorafenib -0.005 | [3] 0.014

IMPA1 isoform 3 (UniProt P29218)
inactive: saracatinib 0.082 | sotrastaurin 0.004 | alvocidib 0.014 | Tubastatin A -0.019 | [1] 0.01 | defactinib 0.005 | rucaparib -0.05 | [2] -0.05 | encorafenib -0.013 | [3] 0.002

IRF3 (UniProt Q14653)
inactive: saracatinib 0.061 | sotrastaurin -0.043 | Tubastatin A 0 | [1] 0.006 | defactinib -0.062 | rucaparib -0.057 | [2] -0.01 | encorafenib 0.014 | [3] -0.014

IGSF3 (UniProt O75054)
inactive: saracatinib -0.003 | sotrastaurin 0.049 | alvocidib -0.015 | Tubastatin A -0.027 | [1] -0.035 | defactinib -0.009 | rucaparib -0.112 | [2] 0.003 | encorafenib 0.008 | [3] 0.014

INPP1 (UniProt P49441)
inactive: saracatinib 0.071 | sotrastaurin 0 | Tubastatin A 0.061 | [1] 0.044 | defactinib -0.032 | rucaparib -0.029 | [2] 0.048 | encorafenib 0.038 | [3] -0.038

ITFG2 (UniProt Q969R8)
inactive: saracatinib -0.034 | sotrastaurin 0.051 | alvocidib -0.086 | Tubastatin A -0.016 | [1] 0.026 | defactinib -0.041 | [2] 0.003 | [3] -0.001

IGHA1 (UniProt P01876)
inactive: saracatinib -0.504 | sotrastaurin -0.048 | alvocidib -0.299 | Tubastatin A 0.095 | [1] 0.139 | defactinib 0.2 | rucaparib 0.223 | [2] 0.267 | encorafenib -0.424 | [3] 0.368

ITIH2 (UniProt P19823)
inactive: saracatinib 0.363 | sotrastaurin 0.33 | alvocidib 0.076 | Tubastatin A -0.101 | [1] 0.15 | defactinib -0.112 | rucaparib -0.233 | [2] 0.032 | encorafenib -0.023 | [3] 0.17

IPO8 (UniProt O15397)
inactive: saracatinib -0.173 | sotrastaurin -0.177 | alvocidib 0.082 | Tubastatin A 0.092 | [1] -0.012 | defactinib -0.159 | rucaparib 0.234 | [2] 0.046 | encorafenib 0.172 | [3] 0.105

Random excerpt: 2 records from the list, in no set order.
IGHA1 (UniProt P01876)
inactive: saracatinib -0.504 | sotrastaurin -0.048 | alvocidib -0.299 | Tubastatin A 0.095 | [1] 0.139 | defactinib 0.2 | rucaparib 0.223 | [2] 0.267 | encorafenib -0.424 | [3] 0.368

INPP1 (UniProt P49441)
inactive: saracatinib 0.071 | sotrastaurin 0 | Tubastatin A 0.061 | [1] 0.044 | defactinib -0.032 | rucaparib -0.029 | [2] 0.048 | encorafenib 0.038 | [3] -0.038

The listing continues.

IPO4 isoform 2 (UniProt Q8TEX9)
inactive: saracatinib -0.029 | sotrastaurin -0.203 | alvocidib 0.002 | Tubastatin A -0.032 | [1] 0.004 | defactinib -0.033 | rucaparib 0.201 | [2] 0.005 | encorafenib 0.138 | [3] -0.054
